According to article PMC5430550 (Scientific Reports, 2017):
No constants are given. Whether binding was seen depends on the method and setting. Some results given as binding are weak or reduced against the parent protein; the word gives no strength. Sequences can lack the tags named with a protein.

What was measured:
[1] = target: RlmH H129A, His6-tagged (E. coli) (UniProt P0A8I8); assay: SEC; conventional size exclusion chromatography, elution profiles compared with the wild type; data not shown; both purified
[2] = target: RlmH R142A, His6-tagged (E. coli) (UniProt P0A8I8); assay: as above
[3] = target: ribosomal large-subunit methyltransferase H (RlmH), wild type, His6-tagged (E. coli) (UniProt P0A8I8); assay: as above
[4] = target: ribosomal large-subunit methyltransferase H (RlmH), wild type, His6-tagged (E. coli) (UniProt P0A8I8); assay: crystal structure; RlmH crystallised with 2 mM SAM (2.3 Å) or sinefungin (2.1 Å); space group P21, 4 molecules (2 dimers) in the asymmetric unit; both purified

B1: RlmH H129A, His6-tagged (enzyme, UniProt P0A8I8 2-155)
chain: KLQLVAVGTKMPDWVQTGFTEYLRRFPKDMPFELIEIPAGKRGKNADIKRILDKEGEQMLAAAGKNRIVTLDIPGKPWDTPQLAAELERWKLDGRDVSLLIGGPEGLSPACKAAAEQSWSLSALTLPAPLVRVLVAESLYRAWSITTNHPYHRE
With B1 the binding [1] was “binds”.

B2: RlmH R142A, His6-tagged (enzyme, UniProt P0A8I8 2-155)
chain: KLQLVAVGTKMPDWVQTGFTEYLRRFPKDMPFELIEIPAGKRGKNADIKRILDKEGEQMLAAAGKNRIVTLDIPGKPWDTPQLAAELERWKLDGRDVSLLIGGPEGLSPACKAAAEQSWSLSALTLPHPLVRVLVAESLYAAWSITTNHPYHRE
B2 was tested, and the binding [2] was “binds”.

B3: ribosomal large-subunit methyltransferase H (RlmH), wild type, His6-tagged (enzyme, E. coli, UniProt P0A8I8 2-155, looked up)
chain: KLQLVAVGTKMPDWVQTGFTEYLRRFPKDMPFELIEIPAGKRGKNADIKRILDKEGEQMLAAAGKNRIVTLDIPGKPWDTPQLAAELERWKLDGRDVSLLIGGPEGLSPACKAAAEQSWSLSALTLPHPLVRVLVAESLYRAWSITTNHPYHRE
notes: RlmH (YbeA) of E. coli, 155 amino acids; rlmH gene from ASKA clone JW0631 in pET24b; no cleavage of the tag is described; Limits 2-155 follow from 'first methionine is replaced' and '155 amino acids'; also called YbeA; WT; source: E. coli BLR(DE3), purified (nickel IMAC twice, SEC on Superdex75); not shown: His6, N-terminal, kept
In the case of B3, the binding [3] is reported as “binds” and the binding [4] is reported as “binds”.
